# The supplement of paper PMC8728848
# Some of the results follow.
# B1: Erv41-EDTA (Saccharomyces cerevisiae), Q04651 (protein)
# chain: MKFLVNVALVFMVVYISYIYAAAPEHHHHHHDYDIPTTENLYFQGAMGYIDQQYVVDSQVRDTVQINMDIYVNTKCDWLQINVRDQTMDRKLVLEELQLEEMPFFIPYDTKVNDINEIITPELDEILGEAIPAEFREKLDTRSFFDESDPNKAHLPEFNGCHVFGSIPVNRVSGELQITAKSLGYVASRKAPLEELKFNHVINEFSFGDFYPYIDNPLDNTAQFNQDEPLTTYVYYTSVVPTLFKKLGAEVDTNQYSVNDYRYLYKDVAAKGDKMPGIFFKYNFEPLSIVVSDVRL
# How the values were obtained:
# Assay in all cases: glycan array binding signal (z-score within array); higher = stronger binding
# Conditions in all cases: glycan notation: IUPAC condensed, linker removed
# [1] = target: GlcNAc(b1-3)Gal(b1-4)GlcNAc(b1-3)Gal(b1-4)GlcNAc(b1-2)Man(a1-3)[GlcNAc(b1-3)Gal(b1-4)GlcNAc(b1-3)Gal(b1-4)GlcNAc(b1-2)Man(a1-6)]Man(b1-4)GlcNAc(b1-4)GlcNAc
# How it was run: (§1)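 Negative Z-scores can be read as non-binding. The Z-score is calculated within each array and then averaged across arrays of one protein sequence at different concentrations or buffers and across linkers. Arrays, 3228 in all, were curated from the Consortium for Functional Glycomics database and kept only where the protein sequence was available.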
# [2] = target: GlcNAc(b1-3)Gal(b1-4)GlcNAc(b1-3)Gal(b1-4)GlcNAc(b1-2)Man(a1-3)[GlcNAc(b1-3)Gal(b1-4)GlcNAc(b1-3)Gal(b1-4)GlcNAc(b1-2)Man(a1-6)]Man(b1-4)GlcNAc(b1-4)[Fuc(a1-6)]GlcNAc
# How it was run: as §1
# [3] = target: GlcNAc(b1-3)Gal(b1-4)GlcNAc(b1-3)Gal(b1-4)GlcNAc(b1-2)[GlcNAc(b1-3)Gal(b1-4)GlcNAc(b1-3)Gal(b1-4)GlcNAc(b1-6)]Man(a1-6)[GlcNAc(b1-3)Gal(b1-4)GlcNAc(b1-3)Gal(b1-4)GlcNAc(b1-2)Man(a1-3)]Man(b1-4)GlcNAc(b1-4)[Fuc(a1-6)]GlcNAc
# How it was run: as §1
# [4] = target: GlcNAc(b1-3)Gal(b1-4)GlcNAc(b1-3)Gal(b1-4)GlcNAc(b1-3)Gal(b1-4)GlcNAc(b1-2)Man(a1-3)[GlcNAc(b1-3)Gal(b1-4)GlcNAc(b1-3)Gal(b1-4)GlcNAc(b1-3)Gal(b1-4)GlcNAc(b1-2)Man(a1-6)]Man(b1-4)GlcNAc(b1-4)GlcNAc
# How it was run: as §1
# [5] = target: GlcNAc(b1-3)Gal(b1-4)GlcNAc(b1-3)Gal(b1-4)GlcNAc(b1-3)Gal(b1-4)GlcNAc(b1-2)Man(a1-3)[GlcNAc(b1-3)Gal(b1-4)GlcNAc(b1-3)Gal(b1-4)GlcNAc(b1-3)Gal(b1-4)GlcNAc(b1-2)Man(a1-6)]Man(b1-4)GlcNAc(b1-4)[Fuc(a1-6)]GlcNAc
# How it was run: as §1
# [6] = target: GlcNAc(b1-3)Gal(b1-4)GlcNAc(b1-3)Gal(b1-4)GlcNAc(b1-3)Gal(b1-4)GlcNAc(b1-2)[GlcNAc(b1-3)Gal(b1-4)GlcNAc(b1-3)Gal(b1-4)GlcNAc(b1-3)Gal(b1-4)GlcNAc(b1-6)]Man(a1-6)[GlcNAc(b1-3)Gal(b1-4)GlcNAc(b1-3)Gal(b1-4)GlcNAc(b1-3)Gal(b1-4)GlcNAc(b1-2)Man(a1-3)]Man(b1-4)GlcNAc(b1-4)[Fuc(a1-6)]GlcNAc
# How it was run: as §1
# [7] = target: GlcNAc(b1-3)Gal(b1-4)GlcNAc(b1-3)Gal(b1-4)GlcNAc(b1-3)Gal(b1-4)GlcNAc(b1-3)Gal(b1-4)GlcNAc(b1-2)Man(a1-3)[GlcNAc(b1-3)Gal(b1-4)GlcNAc(b1-3)Gal(b1-4)GlcNAc(b1-3)Gal(b1-4)GlcNAc(b1-3)Gal(b1-4)GlcNAc(b1-2)Man(a1-6)]Man(b1-4)GlcNAc(b1-4)GlcNAc
# How it was run: as §1
# [8] = target: GlcNAc(b1-3)Gal(b1-4)GlcNAc(b1-3)Gal(b1-4)GlcNAc(b1-3)Gal(b1-4)GlcNAc(b1-3)Gal(b1-4)GlcNAc(b1-2)Man(a1-3)[GlcNAc(b1-3)Gal(b1-4)GlcNAc(b1-3)Gal(b1-4)GlcNAc(b1-3)Gal(b1-4)GlcNAc(b1-3)Gal(b1-4)GlcNAc(b1-2)Man(a1-6)]Man(b1-4)GlcNAc(b1-4)[Fuc(a1-6)]GlcNAc
# How it was run: as §1
# [9] = target: GlcNAc(b1-3)Gal(b1-4)GlcNAc(b1-3)Gal(b1-4)GlcNAc(b1-3)Gal(b1-4)GlcNAc(b1-3)Gal(b1-4)GlcNAc(b1-2)[GlcNAc(b1-3)Gal(b1-4)GlcNAc(b1-3)Gal(b1-4)GlcNAc(b1-3)Gal(b1-4)GlcNAc(b1-3)Gal(b1-4)GlcNAc(b1-6)]Man(a1-6)[GlcNAc(b1-3)Gal(b1-4)GlcNAc(b1-3)Gal(b1-4)GlcNAc(b1-3)Gal(b1-4)GlcNAc(b1-3)Gal(b1-4)GlcNAc(b1-2)Man(a1-3)]Man(b1-4)GlcNAc(b1-4)[Fuc(a1-6)]GlcNAc
# How it was run: as §1
# [10] = target: GlcNAc(b1-3)Gal(b1-4)GlcNAc(b1-3)Gal(b1-4)GlcNAc(b1-3)GalNAc
# How it was run: as §1
# [11] = target: GlcNAc(b1-3)Gal(b1-4)GlcNAc(b1-3)GalNAc
# How it was run: as §1
# [12] = target: GlcNAc(b1-3)Gal(b1-4)GlcNAc(b1-3)[GlcNAc(b1-3)Gal(b1-4)GlcNAc(b1-3)]GalNAc
# How it was run: as §1
# [13] = target: GlcNAc(b1-3)Gal(b1-4)GlcNAc(b1-6)[Gal(b1-3)]GalNAc
# How it was run: as §1
# [14] = target: GlcNAc(b1-3)Gal(b1-4)GlcNAc(b1-6)[GlcNAc(b1-3)Gal(b1-3)]GalNAc
# How it was run: as §1
# [15] = target: GlcNAc(b1-3)Gal(b1-4)GlcNAc(b1-6)[GlcNAc(b1-3)]Gal(b1-4)GlcNAc
# How it was run: as §1
# [16] = target: GlcNAc(b1-3)GalNAc
# How it was run: as §1
# [17] = target: GlcNAc(b1-3)Man
# How it was run: as §1
# [18] = target: GlcNAc(b1-3)[GlcNAc(b1-4)][GlcNAc(b1-6)]GlcNAc
# How it was run: as §1
# [19] = target: GlcNAc(b1-3)[GlcNAc(b1-6)]Gal(b1-4)GlcNAc
# How it was run: as §1
# [20] = target: GlcNAc(b1-3)[GlcNAc(b1-6)]GalNAc
# How it was run: as §1
# [21] = target: GlcNAc(b1-4)Gal(b1-4)GlcNAc
# How it was run: as §1
# [22] = target: GlcNAc(b1-4)GlcNAc
# How it was run: as §1
# [23] = target: GlcNAc(b1-4)GlcNAc(b1-4)GlcNAc
# How it was run: as §1
# [24] = target: GlcNAc(b1-4)GlcNAc(b1-4)GlcNAc(b1-4)GlcNAc(b1-4)GlcNAc
# How it was run: as §1
# [25] = target: GlcNAc(b1-4)GlcNAc(b1-4)GlcNAc(b1-4)GlcNAc(b1-4)GlcNAc(b1-4)GlcNAc
# How it was run: as §1
# [26] = target: GlcNAc(b1-4)[GlcNAc(b1-6)]GalNAc
# How it was run: as §1
# [27] = target: GlcNAc(b1-6)Gal(b1-4)GlcNAc
# How it was run: as §1
# [28] = target: GlcNAc(b1-6)GalNAc
# How it was run: as §1
# [29] = target: GlcNAc6S(b1-3)Gal(b1-4)GlcNAc
# How it was run: as §1
# [30] = target: Kdn(a2-3)Gal(b1-3)GalNAc
# How it was run: as §1
# [31] = target: Kdn(a2-3)Gal(b1-3)GlcNAc
# How it was run: as §1
# [32] = target: Kdn(a2-3)Gal(b1-4)Glc
# How it was run: as §1
# [33] = target: Kdn(a2-3)Gal(b1-4)GlcNAc
# How it was run: as §1
# [34] = target: Kdn(a2-3)Gal(b1-4)[Fuc(a1-3)]GlcNAc
# How it was run: as §1
# [35] = target: Kdn(a2-6)Gal(b1-4)GlcNAc
# How it was run: as §1
# [36] = target: Man(a1-2)Man(a1-2)Man(a1-3)Man
# How it was run: as §1
# [37] = target: Man(a1-2)Man(a1-2)Man(a1-6)[Man(a1-3)]Man
# How it was run: as §1
# [38] = target: Man(a1-2)Man(a1-3)Man
# How it was run: as §1
binder,measurement,setting,value
B1,glycan array binding signal (z-score),[1],0.194
same,glycan array binding signal (z-score),[2],0.714
same,glycan array binding signal (z-score),[3],1.25
same,glycan array binding signal (z-score),[4],0.272
same,glycan array binding signal (z-score),[5],1.54
same,glycan array binding signal (z-score),[6],1.7
same,glycan array binding signal (z-score),[7],0.832
same,glycan array binding signal (z-score),[8],0.649
same,glycan array binding signal (z-score),[9],1.71
same,glycan array binding signal (z-score),[10],-0.987
same,glycan array binding signal (z-score),[11],0.434
same,glycan array binding signal (z-score),[12],-0.055
same,glycan array binding signal (z-score),[13],-0.737
same,glycan array binding signal (z-score),[14],0.568
same,glycan array binding signal (z-score),[15],-0.741
same,glycan array binding signal (z-score),[16],-0.153
same,glycan array binding signal (z-score),[17],-1.05
same,glycan array binding signal (z-score),[18],-0.993
same,glycan array binding signal (z-score),[19],0.788
same,glycan array binding signal (z-score),[20],-0.717
same,glycan array binding signal (z-score),[21],-1.26
same,glycan array binding signal (z-score),[22],0.311
same,glycan array binding signal (z-score),[23],-0.16
same,glycan array binding signal (z-score),[24],-0.85
same,glycan array binding signal (z-score),[25],-0.727
same,glycan array binding signal (z-score),[26],-1.1
same,glycan array binding signal (z-score),[27],-0.106
same,glycan array binding signal (z-score),[28],-0.916
same,glycan array binding signal (z-score),[29],0.896
same,glycan array binding signal (z-score),[30],0.349
same,glycan array binding signal (z-score),[31],-0.267
same,glycan array binding signal (z-score),[32],-0.865
same,glycan array binding signal (z-score),[33],-0.528
same,glycan array binding signal (z-score),[34],0.702
same,glycan array binding signal (z-score),[35],0.261
same,glycan array binding signal (z-score),[36],-0.638
same,glycan array binding signal (z-score),[37],0.403
same,glycan array binding signal (z-score),[38],-0.344

# 2 consecutive entries already listed, for reference:
binder,measurement,setting,value
B1,glycan array binding signal (z-score),[20],-0.717
same,glycan array binding signal (z-score),[21],-1.26
